{"source": "PubChem BioAssay AID1224826 – NIAID – 2016", "screen": "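Regulators of Tlr4 signalling leading to Tnf-alpha expression in macrophages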 (primary screen)", "cell system": "RAW264.7 G9 macrophages from mouse bearing reporters for p65 (GFP) and the Tnf promoter (mCherry)", "reagent": "siRNA pool against mouse genes, 100 nM", "duration": "16 h of LPS stimulation, after 2 days of siRNA transfection", "treatment": "bacterial lipopolysaccharide (Salmonella minnesota R595), 10 ng/ml", "read-out": "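Nuclear mCherry signal of the Tnf promoter reporter measured by imaging after background removal, scaled to each plate median and turned into robust z-scores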", "direction": "Tnf reporter robust z-score: higher = stronger Tnf promoter reporter signal after LPS", "call rule": "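a well counts as active at a score of -1.3 or below (Tlr4 knock-down control median) or above 3 (raised signal); controls and wells holding fewer than 50 cells are excluded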", "calls": "active = Tnf reporter clearly lowered or raised; inactive = no clear change in Tnf reporter", "note": "In all, the deposit lists about 17,000 reagents; this is an unselected part. About 1,110 of all reagents (6.6%) count as active. 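Active means lowered or raised reporter signal; replicate intensities are raw and not normalised per plate.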 A number with no mark means an inactive call. Further read-outs or replicates are left out here. No sequences are given here."}
{"Gene": "Ptbp2 (GeneID 56195)", "fewer than 50 cells in well": "fewer than 50 cells per well; well left out of calls"}
{"Gene": "Pofut2 (GeneID 80294)", "Tnf reporter robust z-score": 0.84, "fewer than 50 cells in well": "enough cells in well"}
{"Gene": "Grhl2 (GeneID 252973)", "Tnf reporter robust z-score": 0.81, "fewer than 50 cells in well": "enough cells in well"}
{"Gene": "Caps2 (GeneID 353025)", "Tnf reporter robust z-score": -1.06, "fewer than 50 cells in well": "enough cells in well"}
{"Gene": "Vezt (GeneID 215008)", "Tnf reporter robust z-score": 0.08, "fewer than 50 cells in well": "enough cells in well"}
{"Gene": "Prkar2a (GeneID 19087)", "Tnf reporter robust z-score": 1.42, "fewer than 50 cells in well": "enough cells in well"}
{"Gene": "Rcan1 (GeneID 54720)", "Tnf reporter robust z-score": -1.12, "fewer than 50 cells in well": "enough cells in well"}
{"Gene": "Mettl6 (GeneID 67011)", "Tnf reporter robust z-score": -0.96, "fewer than 50 cells in well": "enough cells in well"}
{"Gene": "Tapbpl (GeneID 213233)", "fewer than 50 cells in well": "fewer than 50 cells per well; well left out of calls"}
{"Gene": "Rexo2 (GeneID 104444)", "fewer than 50 cells in well": "fewer than 50 cells per well; well left out of calls"}
{"Gene": "Ctss (GeneID 13040)", "Tnf reporter robust z-score": 0.2, "fewer than 50 cells in well": "enough cells in well"}
{"Gene": "BC051019 (GeneID 57355)", "Tnf reporter robust z-score": -0.84, "fewer than 50 cells in well": "enough cells in well"}
{"Gene": "Ms4a13 (GeneID 73466)", "Tnf reporter robust z-score": 1.93, "fewer than 50 cells in well": "enough cells in well"}
{"Gene": "Kcnj14 (GeneID 211480)", "Tnf reporter robust z-score": -1.03, "fewer than 50 cells in well": "enough cells in well"}

Copied from the list.
Under “fewer than 50 cells in well”, Tapbpl (GeneID 213233) is entered as fewer than 50 cells per well; well left out of calls
For “Tnf reporter robust z-score”, Pofut2 (GeneID 80294) shows 0.84
